Measured values as given in article PMC4425511.
No constants are given. Whether binding was seen depends on the method and setting. Some entries that bind do so weakly or less than the wild type.

Target: SHORT … PHASE (SVP) (Arabidopsis thaliana), Q9FVC1
Test: two-hybrid; yeast strain PJ69-4; bait and prey plasmids (pDEST22, pDEST32) in two mating types, mated; grown at 21°C on selective media lacking leucine, tryptophan and histidine
Settings: remark: other sources report otherwise

B1: MADS … FLOWERING2 splice variant 1 (MAF2var1), Q9FPN7 1-196 (protein)
chain: MGRKKVEIKRIENKSSRQVTFSKRRNGLIEKARQLSILCESSIAVLVVSGSGKLYKSASGDNMSKIIDRYEIHHADELEALDLAEKTRNYLPLKELLEIVQSKLEESNVDNASVDTLISLEEQLETALSVTRARKTELMMGEVKSLQKTENLLREENQTLASQVGKKTFLVIEGDRGMSWENGSGNKVRETLPLLK
  binding: binds
